Source: publication PMC6072111
No constants are given. Whether binding was seen depends on the method and setting. In cells and extracts the contact can be indirect. Binding calls can cover weak binding; strength is not graded here.

Molecular target: T1, MUT-16::mCherry::2xHA (full-length) (C. elegans) (UniProt O62011)
T1 sequence: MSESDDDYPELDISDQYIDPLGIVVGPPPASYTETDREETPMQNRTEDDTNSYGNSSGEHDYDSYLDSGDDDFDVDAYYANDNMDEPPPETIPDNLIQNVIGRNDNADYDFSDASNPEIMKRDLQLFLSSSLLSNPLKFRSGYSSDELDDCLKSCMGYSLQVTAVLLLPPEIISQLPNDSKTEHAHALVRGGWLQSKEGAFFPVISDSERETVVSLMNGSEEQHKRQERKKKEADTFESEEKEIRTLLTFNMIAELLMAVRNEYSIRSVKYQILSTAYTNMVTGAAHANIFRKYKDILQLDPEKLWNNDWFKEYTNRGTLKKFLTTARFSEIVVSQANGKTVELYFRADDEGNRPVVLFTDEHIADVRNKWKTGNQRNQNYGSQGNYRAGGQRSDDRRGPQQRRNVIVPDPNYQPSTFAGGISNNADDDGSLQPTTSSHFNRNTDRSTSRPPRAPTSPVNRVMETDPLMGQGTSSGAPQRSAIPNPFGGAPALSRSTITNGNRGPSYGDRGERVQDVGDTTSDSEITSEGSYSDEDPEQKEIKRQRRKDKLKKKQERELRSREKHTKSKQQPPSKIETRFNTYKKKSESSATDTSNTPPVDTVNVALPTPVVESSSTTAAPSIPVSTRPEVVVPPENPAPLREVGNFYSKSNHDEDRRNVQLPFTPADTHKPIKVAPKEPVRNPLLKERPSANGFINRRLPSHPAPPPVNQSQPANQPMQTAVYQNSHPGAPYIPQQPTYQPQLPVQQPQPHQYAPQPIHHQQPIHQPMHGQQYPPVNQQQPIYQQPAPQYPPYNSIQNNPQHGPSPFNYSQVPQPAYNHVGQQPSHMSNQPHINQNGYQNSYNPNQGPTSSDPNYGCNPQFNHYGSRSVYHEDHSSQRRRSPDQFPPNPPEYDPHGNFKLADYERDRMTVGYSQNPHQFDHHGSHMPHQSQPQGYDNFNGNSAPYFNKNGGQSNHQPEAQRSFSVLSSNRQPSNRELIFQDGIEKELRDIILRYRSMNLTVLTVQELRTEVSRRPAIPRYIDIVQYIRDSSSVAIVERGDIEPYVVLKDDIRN
Test: co-IP; anti-HA affinity matrix on lysate of ~40,000 synchronized adult C. elegans carrying MUT-16::mCherry::2xHA (full-length or deletion) and a GFP/3xFLAG-tagged partner; western blot with anti-HA and anti-FLAG

| binding | Substance |
| --- | --- |
| binds | GFP::3xFLAG::RRF-1 (C. elegans) (enzyme) |
| binds | MUT-2::GFP::3xFLAG (C. elegans) |
